For at least one compound, name, drawing or mass did not settle the structure.
Test system: HCC 1954 breast cancer cells
Test: shRNA bar code screen in HCC 1954 breast cancer cells
Assay type: cell-based

`CO[C@H]1C[C@@H]2CC[C@@H](C)[C@@](O)(O2)C(=O)C(=O)N2CCCC[C@H]2C(=O)O[C@H]([C@H](C)C[C@@H]2CC[C@@H](O)[C@H](OC)C2)CC(=O)[C@H](C)/C=C(\C)[C@@H](O)[C@@H](OC)C(=O)[C@H](C)C[C@H](C)/C=C/C=C/C=C/1C` [rapamycin] was tested, and the “resistance on knockdown of ARID1A” value was “conferred resistance”.

— patent US20140287931A1, “METHODS AND COMPOSITIONS FOR PREDICTING RESISTANCE TO ANTICANCER TREATMENT” (Stichting het Nederlands Kanker Instituut - Antoni van …, priority 2011, published 2014)
